Values of other authors as cited in patent publication US6916800B2, “Combination therapy including a matrix metalloproteinase inhibitor and an antineoplastic agent” (Pfizer Inc, priority 1998, dated 2005).
At least one structure is not confirmed: it was looked up by name or label, or the drawing left a doubt.

Tested on: Gingival crevicular fluid collagenase
Settings: cited from earlier work

SMILES: C[C@H]1c2cccc(O)c2C(=O)C2=C(O)[C@]3(O)C(=O)C(C(N)=O)=C(O)[C@@H](N(C)C)[C@@H]3[C@@H](O)[C@@H]21 [doxycycline]
- concentrations at which collagenase is inhibited: 5-10 microg/ml and or 15-30 microM
